# Test results published in patent US9750789B2, “Use of matrix metalloproteinase inhibitors to treat tuberculosis” (priority 2011, dated 2017).
# At least one compound was matched to its structure with a doubt left.
# Key:
# MMP-1 = MMP-1 secretion by Mtb infected primary human macrophages (Luminex); format: cell-based; conditions: 72 h, dose-dependent
# MMP-3 = MMP-3 secretion by Mtb infected primary human macrophages (Luminex); format: cell-based; conditions: 72 h, dose-dependent
# TNF-α = TNF-α secretion by Mtb infected primary human macrophages; format: cell-based
# MMP-1 mRNA = MMP-1 mRNA accumulation in A549 cells; format: cell-based, human; conditions: 24 h
# Mtb [1] = test: Mtb growth in 7H9 culture broth by optical density; format: cell-based, Mycobacterium tuberculosis; conditions: 7H9 broth, 12 day period, from day 2
# Mtb [2] = test: Mtb growth on doxycycline-impregnated 7H11 agar plates; format: cell-based, Mycobacterium tuberculosis; conditions: doxycycline 2 μg/ml, after 2 weeks
# Mtb [3] = test: Disc diffusion assay; format: cell-based, Mycobacterium tuberculosis
structure (smiles),measurement,setting,value
"C[C@H]1c2cccc(O)c2C(=O)C2=C(O)[C@]3(O)C(=O)C(C(N)=O)=C(O)[C@@H](N(C)C)[C@@H]3[C@@H](O)[C@@H]21 [Doxycycline, doxycycline]",MMP-1 secretion,MMP-1,suppressed
same,MMP-3 secretion,MMP-3,suppressed
same,TNF-α secretion,TNF-α,suppressed
same,MMP-1 mRNA accumulation,MMP-1 mRNA,suppressed
same,mycobacterial growth by optical density,Mtb [1],significantly suppressed
same,Mtb growth on agar,Mtb [2],complete inhibition
same,Mtb growth in disc diffusion assay,Mtb [3],prevented Mtb growth
